No constants are given. Whether binding was seen depends on the method and setting. For part of these data: Binding can be weak; no strength is given.
What was measured:
cyno CD73 (cyno) [1] = test: in vitro biochemical assay
N-terminal of CD73 = test: plate binding assay, axis Binding activity (OD450) against Ab (µg/ml); panel Binding to N-terminal of CD73
cyno CD73 (cyno) [2] = test: in vitro biochemical assay (FIG. 21)

B1: Hu101-28 (antibody, V domains shown)
VH: EVQLQESGPGLVKPSETLSLTCAVSGYSITSGYYWNWIRQPPGKKLEWMGYINYGGSNGYNPSLKSRITISRDTSKNQFSLKLSSVTAADTAVYYCARDYDAYYEALDDWGQGTTVTVSS
VL: EIVLSQSPATLSLSPGERATLSCRASSRVNYMHWYQQKPGQSPRPWISATSNLASGVPARFSGSGSGTSYTLTISSLEPEDFAVYYCQQWSSNPPTFGGGTKVEIK
Question: With B1 as the binder, how does the binding (cyno CD73 (cyno) [1]) read?
Answer: binds

Question: What about the binding (N-terminal of CD73) of the same binder?
Answer: no binding (tested: about 3 µg/ml)

Question: And the binding (cyno CD73 (cyno) [2])?
Answer: binds
